Laboratory results taken from PubChem BioAssay AID493014 (National Center for Advancing Translational Sciences (NCATS), 2011).
Some of the results follow. These are further read-outs of the screen, such as a control signal, another cell line or another target. No call is given for them. The list favours compounds with an active or inconclusive main result. Potencies come from curve fits of mixed quality, noted in brackets.

Test: qHTS Assay to Find Inhibitors of Chronic Active B-Cell Receptor Signaling
Settings: ABC-DLBCL IkBa-CBG/CBR reporter, luminescence ratio (green luciferase fused to IkBa over red control in TMD8 lymphoma cells), 4 h
In short: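 TMD8 human ABC-DLBCL cells with doxycycline-inducible IκBα–green luciferase fusion and unfused red luciferase, in 0.5% FBS medium; compounds up to 46 uM, 4 h at 37C. Green/red luminescence ratio, filter-overlap corrected, fitted to concentration-response curves.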

[1] = measured here: CBR red luminescence, cell number
[2] = measured here: IkBa-CBG green luminescence

| Compound | AC50 [1] | AC50 [2] |
| --- | --- | --- |
| COC(=O)C1CCN(CC(=O)Nc2ccc(OC)c(Cl)c2)CC1 | 35.5 µM [rising, single point] |  |
| Cn1cc(CN2CCc3sccc3C2)c(-c2ccccc2F)n1 | 3.55 µM [rising, full curve, poor fit] |  |
| CCc1nc(C)cn1S(=O)(=O)c1cc(Cl)c(OC)cc1Cl | 6.31 µM [falling, single point] |  |
| COc1ccc(S(=O)(=O)N2CCOC23CCN(S(=O)(=O)c2ccccc2)CC3)cc1 | 0.00461 µM [rising, full curve, poor fit] |  |
| O=C(CSC(=S)N1CCOCC1)c1cc2ccccc2oc1=O | 2.82 µM [falling, partial curve] |  |
| CC(OC(=O)c1ccc(S(=O)(=O)N2CCCCC2)cc1)C(=O)Nc1ccc(C(N)=O)cc1 (configuration not stated) | 29.1 µM [rising, single point] |  |
| O=C(C1CCCO1)N1CCN(C(=S)Nc2cc(F)cc(F)c2)CC1 (configuration not stated) | 22.4 µM [falling, partial curve, poor fit] |  |
| CCCCOc1ccc(C)cc1CN(CCO)CCO | 18.4 µM [rising, single point] |  |
| O=C(CSc1nnc(-c2ccccn2)o1)Nc1cccc(Cl)c1 | 8.91 µM [falling, partial curve] |  |
| CN(C)C(=O)CSc1nnc(CCN)o1 | 20 µM [rising, partial curve, poor fit] |  |
| COc1ccc(-c2nnc(NC(=O)CSc3ccc(C)cc3)s2)cc1OC | 7.31 µM [rising, partial curve, poor fit] |  |
| Cc1cc(C(=O)Nc2ncc(C)s2)c2ccccc2n1 | 25.1 µM [falling, partial curve, poor fit] |  |
| O=CN(/C=C1\Sc2ccccc2C1=O)Cc1ccccc1 | 11.6 µM [falling, partial curve] |  |
| O=[N+]([O-])c1cc(Cl)ccc1NCCNS(=O)(=O)c1ccccc1 | 2.31 µM [rising, full curve, poor fit] |  |
| CC(=O)NC12CC3CC(C1)CC(C(=O)N(C)Cc1cccc(Cl)c1Cl)(C3)C2 | 0.794 µM [falling, partial curve, poor fit] |  |
| COc1ccc(-c2csc(N3C(=O)CNC3=S)n2)cc1 | 0.411 µM [rising, full curve, poor fit] |  |
| CCCNC(=O)NC(=O)CSc1nnc(-c2c[nH]c3ccccc23)o1 | 25.1 µM [falling, partial curve, poor fit] |  |
| O=C(Nc1ccc(N2CCN(C(=O)c3ccccc3F)CC2)cc1)c1ncn[nH]1 | 20 µM [falling, single point] |  |
| O=C(CCN1C(=O)c2ccccc2S1(=O)=O)Nc1ccccc1F | 10 µM [falling, partial curve] |  |
| CCOc1ccc(/C=N/O)cc1 | 18.4 µM [rising, single point] |  |
| Oc1c(I)cc(Cl)c2cccnc12 |  | 5.17 µM [falling, partial curve, poor fit] |

| Compound | AC50 [1] | AC50 [2] |
| --- | --- | --- |
| Nc1ccccc1C(=O)NCC1(c2ccccc2)CCCC1 | 2.24 µM [rising, partial curve, poor fit] |  |
| Cc1cc(-c2ccn[nH]2)c(C)s1 | 1.12 µM [falling, full curve, poor fit] |  |
| CCc1ccc(-n2c(SCC(=O)c3ccc4c(c3)NC(=O)CO4)nc3ccccc3c2=O)cc1 | 35.5 µM [rising, single point] |  |
| Cc1ccc(NC(=O)CC2OC(=O)c3ccccc32)cc1S(=O)(=O)N1CCOCC1 (configuration not stated) | 20.6 µM [rising, partial curve, poor fit] |  |
| CCCCc1nc(SCc2ccc([N+](=O)[O-])cc2)n[nH]1 | 35.5 µM [rising, single point] |  |
| O=C(N/N=C/C=C/c1ccccc1)c1cccnc1 | 8.91 µM [falling, partial curve, poor fit] |  |
| CC(C)c1ccc(-c2csc3ncnc(N4CCN(C)CC4)c23)cc1 | 35.5 µM [falling, single point] |  |
| C/C(=N\NC(=O)c1ccccc1)C1C2C=CC(C2)C1(C)C (configuration not stated) | 2.51 µM [falling, full curve] |  |
| C=C(C)COc1ccc(-c2[nH]ncc2-c2ccc(Br)cc2)c(O)c1 | 20.6 µM [rising, partial curve, poor fit] |  |
| O=C(CNC(=O)c1ccccc1Br)N/N=C/c1cccs1 | 6.31 µM [falling, full curve, poor fit] |  |
| CCOc1ccc(Nc2nc3ccccc3n3nnnc23)cc1 | 0.501 µM [falling, full curve, poor fit] |  |
| Cc1sc2ncnc(N3CCC(C(=O)Nc4ccc(S(N)(=O)=O)cc4)CC3)c2c1C | 16.4 µM [falling, single point] |  |
| CC1CCC(C(C)C)C(OCC(O)CNC(C)c2ccccc2)C1 (configuration not stated) | 15.8 µM [falling, single point] |  |
| O=C(CNc1ccccc1F)Nc1cccc2ccccc12 | 0.562 µM [falling, full curve] |  |
| Cc1cc(C)n(-c2nnc3n2N=C(c2c[nH]c4ccccc24)CS3)n1 |  | 29.1 µM [falling, single point] |
| CCn1c(C)nc2cc(C(=O)NNC(=S)NC(=O)c3ccc(OC)cc3)ccc21 | 35.5 µM [rising, single point] |  |
| CC(C)COc1cccc(C(=O)NC(=S)NCc2cccnc2)c1 | 14.6 µM [falling, single point] |  |
| CC(C)C[C@H](NC(=O)[C@@H]1Cc2ccccc2CN1)C(=O)Nc1ccc(C(C)C)cc1 | 0.501 µM [rising, full curve, poor fit] |  |
| Cc1oc(-c2ccc3c(c2)OCCO3)cc1C(=O)NC(Cc1ccccc1)C(=O)O (configuration not stated) |  | 10 µM [rising, partial curve, poor fit] |
| Cc1ccc(-c2csc(N3CCC[C@@H]3C(=O)NCCn3c(C(F)(F)F)nc4ccccc43)n2)cc1 | 8.91 µM [falling, partial curve, poor fit] |  |
| CCOc1ccccc1NC(=O)c1nc(S(=O)(=O)Cc2ccccc2)ncc1Cl | 10 µM [falling, partial curve, poor fit] |  |

Some of the entries so far, with tabs.
Compound	AC50 [1]	AC50 [2]
Cc1ccc(NC(=O)CC2OC(=O)c3ccccc32)cc1S(=O)(=O)N1CCOCC1 (configuration not stated)	20.6 µM [rising, partial curve, poor fit]	
Cc1cc(C)n(-c2nnc3n2N=C(c2c[nH]c4ccccc24)CS3)n1		29.1 µM [falling, single point]
